Reference: article doi:10.1101/2021.12.23.473985
No constants are given. Whether binding was seen depends on the method and setting.

Biological target: cytochrome b561 (CybB) from E. coli, superoxide:quinone oxidoreductase (E. coli) (UniProt P0ABE5)
Experiment: SEC

binding: no binding
B1: cytochrome b561 (CybB) from E. coli, superoxide:quinone oxidoreductase (enzyme, UniProt P0ABE5 1-176)
chain: MENKYSRLQISIHWLVFLLVIAAYCAMEFRGFFPRSDRPLINMIHVSCGISILVLMVVRLLLRLKYPTPPIIPKPKPMMTGLAHLGHLVIYLLFIALPVIGLVMMYNRGNPWFAFGLTMPYASEANFERVDSLKSWHETLANLGYFVIGLHAAAALAHHYFWKDNTLLRMMPRKRS
